# Measured values published in patent US20140248666A1.
# Results are given in words; binding and its absence hold for the method and conditions named. Some results given as binding are weak or reduced against the parent protein; the word gives no strength.
# T1: rat sclerostin peptide … (SEQ ID NO:96) (rat)
# T1 sequence (peptide): PNAIGRVKWWRPNGPDFRC
# T2: rat sclerostin peptide … (SEQ ID NO:97) (rat)
# T2 sequence (peptide): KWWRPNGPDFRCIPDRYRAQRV
# B1: Antibody 19 (antibody, V domains shown)
# VH: EVQLQQSGPELVKPGASVKMSCKASGFTFTDYIMHWVKQKPGQGLEWIGYINPYNDDTEYNEKFKGKATLTSDKSSSTAYMDLSSLTSEGSAVYYCARSIYYYDAPFAYWGQGTLVTVSS
# VL: DIQMTQTTSSLSASLGDRVNISCRASQDISSYLNWYQQKPDGTVKLLIYSTSRLNSGVPSRFSGSGSGTDYSLTISNLAQEDIATYFCQQDIKHPTFGGGTKLELKR
# What was measured:
# [1] = biological target: T1, rat sclerostin peptide … (SEQ ID NO:96) (rat); assay: peptide binding ELISA, peptide coupled to sulfhydryl binding plate, antibody at 1 ug/ml
# [2] = biological target: T2, rat sclerostin peptide … (SEQ ID NO:97) (rat); assay: as above
binder,measurement,setting,value
B1,binding,[1],binds
same,binding,[2],binds
